Consider one substance from doi:10.1101/2025.02.14.638310 (bioRxiv, 2025).

By UniProt entry, the sequences of proteins in these tests, tags left out. Where a name states a change or a piece, a line headed by the entry shows the natural chain unless it says otherwise. Residues count along the entry.
UniProt Q8I6T1, residues 28-426: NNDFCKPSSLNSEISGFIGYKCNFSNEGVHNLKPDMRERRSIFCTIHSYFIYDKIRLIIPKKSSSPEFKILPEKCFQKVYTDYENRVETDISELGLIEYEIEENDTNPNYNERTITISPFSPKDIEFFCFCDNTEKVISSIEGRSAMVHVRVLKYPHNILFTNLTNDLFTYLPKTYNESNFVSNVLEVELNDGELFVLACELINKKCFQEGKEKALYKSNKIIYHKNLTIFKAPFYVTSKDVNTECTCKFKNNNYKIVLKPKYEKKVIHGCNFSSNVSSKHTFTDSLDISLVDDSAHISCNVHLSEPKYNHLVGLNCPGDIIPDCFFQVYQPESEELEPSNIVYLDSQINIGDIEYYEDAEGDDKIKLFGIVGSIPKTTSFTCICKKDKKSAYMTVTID
UniProt P68874: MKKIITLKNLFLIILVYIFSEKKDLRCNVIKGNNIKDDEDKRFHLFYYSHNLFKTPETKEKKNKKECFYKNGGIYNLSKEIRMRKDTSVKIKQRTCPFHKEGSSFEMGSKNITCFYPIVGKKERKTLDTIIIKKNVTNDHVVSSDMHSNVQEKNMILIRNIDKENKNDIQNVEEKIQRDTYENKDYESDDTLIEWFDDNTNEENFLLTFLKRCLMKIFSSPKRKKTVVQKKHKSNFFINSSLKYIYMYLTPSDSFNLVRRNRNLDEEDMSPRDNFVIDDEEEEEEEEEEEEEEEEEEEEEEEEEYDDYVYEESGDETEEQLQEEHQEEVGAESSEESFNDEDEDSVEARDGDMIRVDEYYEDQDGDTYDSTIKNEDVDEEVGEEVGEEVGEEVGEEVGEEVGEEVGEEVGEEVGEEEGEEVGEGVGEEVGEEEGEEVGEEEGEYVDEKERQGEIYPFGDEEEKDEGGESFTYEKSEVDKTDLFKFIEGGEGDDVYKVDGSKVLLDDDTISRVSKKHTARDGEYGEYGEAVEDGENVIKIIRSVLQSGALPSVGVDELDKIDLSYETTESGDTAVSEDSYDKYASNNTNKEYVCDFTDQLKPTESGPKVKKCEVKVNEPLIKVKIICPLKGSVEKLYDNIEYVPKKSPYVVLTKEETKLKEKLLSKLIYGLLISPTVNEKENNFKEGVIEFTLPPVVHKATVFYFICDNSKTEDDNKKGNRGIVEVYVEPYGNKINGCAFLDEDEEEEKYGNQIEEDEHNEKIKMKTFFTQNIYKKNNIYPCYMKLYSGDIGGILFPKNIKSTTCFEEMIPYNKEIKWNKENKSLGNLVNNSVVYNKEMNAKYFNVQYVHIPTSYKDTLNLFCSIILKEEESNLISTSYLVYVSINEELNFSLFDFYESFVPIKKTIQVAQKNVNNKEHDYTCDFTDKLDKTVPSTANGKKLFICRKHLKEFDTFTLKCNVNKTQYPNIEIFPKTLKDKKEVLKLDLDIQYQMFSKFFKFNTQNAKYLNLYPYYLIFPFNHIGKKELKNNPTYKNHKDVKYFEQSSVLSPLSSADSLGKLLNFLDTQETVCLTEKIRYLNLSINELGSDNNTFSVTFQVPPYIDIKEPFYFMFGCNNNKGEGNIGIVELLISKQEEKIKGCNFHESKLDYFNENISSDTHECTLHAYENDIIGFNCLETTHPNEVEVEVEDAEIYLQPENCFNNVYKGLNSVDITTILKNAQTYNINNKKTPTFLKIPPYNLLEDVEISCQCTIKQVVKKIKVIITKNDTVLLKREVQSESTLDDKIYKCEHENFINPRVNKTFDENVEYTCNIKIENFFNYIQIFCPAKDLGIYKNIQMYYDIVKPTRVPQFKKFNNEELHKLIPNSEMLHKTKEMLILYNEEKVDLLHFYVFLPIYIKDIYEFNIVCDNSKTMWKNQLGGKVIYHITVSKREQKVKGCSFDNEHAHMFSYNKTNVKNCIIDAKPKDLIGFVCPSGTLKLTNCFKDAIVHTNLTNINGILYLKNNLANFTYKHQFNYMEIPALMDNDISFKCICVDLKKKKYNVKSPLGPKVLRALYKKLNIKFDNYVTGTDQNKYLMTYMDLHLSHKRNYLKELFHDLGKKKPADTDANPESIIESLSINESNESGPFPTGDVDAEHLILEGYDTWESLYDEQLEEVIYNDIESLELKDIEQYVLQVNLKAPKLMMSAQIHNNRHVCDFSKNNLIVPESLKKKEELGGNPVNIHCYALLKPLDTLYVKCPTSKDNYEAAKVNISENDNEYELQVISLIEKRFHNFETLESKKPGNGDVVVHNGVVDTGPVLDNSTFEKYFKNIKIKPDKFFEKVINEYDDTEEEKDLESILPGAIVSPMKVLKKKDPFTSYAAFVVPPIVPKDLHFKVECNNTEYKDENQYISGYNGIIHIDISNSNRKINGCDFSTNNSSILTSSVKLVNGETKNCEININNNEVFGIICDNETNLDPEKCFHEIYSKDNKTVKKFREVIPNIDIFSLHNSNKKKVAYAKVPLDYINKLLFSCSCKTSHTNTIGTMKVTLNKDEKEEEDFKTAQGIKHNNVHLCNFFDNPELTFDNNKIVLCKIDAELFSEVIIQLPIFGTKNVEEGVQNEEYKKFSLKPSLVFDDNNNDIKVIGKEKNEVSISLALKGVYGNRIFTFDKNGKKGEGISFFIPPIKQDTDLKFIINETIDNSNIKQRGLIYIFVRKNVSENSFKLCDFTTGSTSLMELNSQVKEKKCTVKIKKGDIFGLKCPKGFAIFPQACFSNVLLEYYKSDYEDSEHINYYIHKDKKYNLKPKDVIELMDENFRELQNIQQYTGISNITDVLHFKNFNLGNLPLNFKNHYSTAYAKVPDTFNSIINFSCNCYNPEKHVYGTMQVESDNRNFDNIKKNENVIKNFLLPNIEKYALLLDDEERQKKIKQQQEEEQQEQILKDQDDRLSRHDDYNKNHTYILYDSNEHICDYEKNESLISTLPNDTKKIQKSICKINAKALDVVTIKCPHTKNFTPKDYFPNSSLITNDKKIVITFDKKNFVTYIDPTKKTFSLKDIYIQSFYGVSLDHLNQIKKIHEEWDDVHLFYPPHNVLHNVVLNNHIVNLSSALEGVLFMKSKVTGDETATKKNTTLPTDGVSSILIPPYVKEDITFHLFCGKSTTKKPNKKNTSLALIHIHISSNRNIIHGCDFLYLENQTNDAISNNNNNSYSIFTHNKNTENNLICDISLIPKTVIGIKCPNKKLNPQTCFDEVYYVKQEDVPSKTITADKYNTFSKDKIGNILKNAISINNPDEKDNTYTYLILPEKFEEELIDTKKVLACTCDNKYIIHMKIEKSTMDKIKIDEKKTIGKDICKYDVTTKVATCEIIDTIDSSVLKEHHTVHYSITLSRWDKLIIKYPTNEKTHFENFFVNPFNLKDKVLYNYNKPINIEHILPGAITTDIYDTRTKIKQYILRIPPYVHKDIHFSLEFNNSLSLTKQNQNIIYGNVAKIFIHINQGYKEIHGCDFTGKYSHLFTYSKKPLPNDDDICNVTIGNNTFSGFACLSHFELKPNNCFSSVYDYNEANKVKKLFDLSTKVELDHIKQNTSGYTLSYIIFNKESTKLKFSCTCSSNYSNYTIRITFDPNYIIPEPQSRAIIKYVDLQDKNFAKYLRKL

These are yes or no findings as the source states them, for the method shown. Binding can be weak; no strength is given.

The assay concerns the target Pfs48/45 (endogenous) (Plasmodium falciparum (endogenous in NF54 gametocytes and gametes)) (UniProt Q8I6T1). Description: flow cytometry on cells; only the binder purified.

On to “Pfs230D13–14-Cterm (recombinant double domain, residue 2831–3105) (from UniProt P68874) (domain or fragment)”, for which the binding entry is “binds”.
